Measurements as given in patent US5254537A, “Composition and treatment with peptide combinations” (priority 1991, dated 1993).
Part of at least one peptide drawing is inferred or uncertain, most often the ends. Residues, ends and D or L forms follow the SMILES beside them.

Assays:
Type in all cases: cell-based
[1] = test system: S. aureus; assay: Minimal inhibitory concentration in Luria broth, 24 hours (Example 1); details: about 10^5 bacteria/ml in Luria broth, complete growth inhibition at 24 hours
[2] = test system: E. coli; assay: as above; details: about 10^5 bacteria/ml in Luria broth, complete growth inhibition at 24 hours
[3] = test system: S. aureus; assay: Concentration of S. aureus killed by 100 μg/ml peptide preparation (Example 2)

CC[C@H](C)[C@H](NC(=O)CN)C(=O)NCC(=O)N[C@@H](CCCCN)C(=O)N[C@@H](Cc1ccccc1)C(=O)N[C@@H](CC(C)C)C(=O)N[C@@H](Cc1c[nH]cn1)C(=O)N[C@@H](CO)C(=O)N[C@@H](C)C(=O)N[C@@H](CCCCN)C(=O)N[C@@H](CCCCN)C(=O)N[C@@H](Cc1ccccc1)C(=O)NCC(=O)N[C@@H](CCCCN)C(=O)N[C@@H](C)C(=O)N[C@@H](Cc1ccccc1)C(=O)N[C@H](C(=O)NCC(=O)N[C@@H](CCC(=O)O)C(=O)N[C@H](C(=O)N[C@@H](CCSC)C(=O)N[C@@H](CC(N)=O)C(=O)N[C@@H](CO)C(=O)O)[C@@H](C)CC)C(C)C [MGN2, Magainin II] (H-GIGKFLHSAKKFGKAFVGEIMNS-OH)
MINIMAL INHIBITORY CONCENTRATION [1]: > 500 µg/mL | MINIMAL INHIBITORY CONCENTRATION [2]: 50 µg/mL | concentration of S. aureus completely killed [3]: less than 10 bacteria/ml

CC[C@H](C)[C@H](NC(=O)[C@H](C)NC(=O)CNC(=O)[C@H](C)NC(=O)[C@H](CCCCN)NC(=O)[C@H](CO)NC(=O)[C@H](C)NC(=O)[C@H](CCSC)NC(=O)CN)C(=O)N[C@@H](C)C(=O)NCC(=O)N[C@@H](CCCCN)C(=O)N[C@H](C(=O)N[C@@H](C)C(=O)N[C@@H](CCCCN)C(=O)N[C@H](C(=O)N[C@@H](C)C(=O)N[C@@H](CC(C)C)C(=O)N[C@@H](CCCCN)C(=O)N[C@@H](C)C(=O)N[C@@H](CC(C)C)C(N)=O)C(C)C)[C@@H](C)CC [PGLa] (H-GMASKAGAIAGKIAKVALKAL-NH2)
MINIMAL INHIBITORY CONCENTRATION [1]: > 500 µg/mL | MINIMAL INHIBITORY CONCENTRATION [2]: 50 µg/mL
